Record: PubChem BioAssay AID1259300 (Sanger Institute, 2017)
Here is an unselected part of 794 reagents tested. In the full data, 18 (2.3%) were called active. 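Calls rest on knock-down alone, not drug synergy; depositor treated synergy scores above 0.15 as synergistic; drug doses alone had little viability effect.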 Entries without a mark were called inactive. Not all columns of the deposit are shown. Not stated in the record: the amount of reagent, the time to read-out.

- Test: 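Which knock-downs harm HCT15 alone or synergise with the drugs BYL719, cetuximab or trametinib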 (primary screen)
- Cell system: HCT15 colorectal cancer cells
- Knock-down reagent: siRNA pool against human genes
- Challenge: anchor drug or DMSO vehicle added 24 h after seeding: BYL719 1 µM, cetuximab 5 µg/ml, trametinib 10 nM; drug doses chosen to barely affect viability alone
- Measured: 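Cell viability after knock-down, as fraction of non-targeting pool wells averaged over replicates, plus robust z-score for knock-down alone; synergy score per drug (BYL719 1 µM, cetuximab 5 µg/ml, trametinib 10 nM)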
- Direction: viability z-score, siRNA alone: higher = more viable cells after knock-down
- Active means: 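a knock-down without drug that drives the robust viability z-score under -3 is active, i.e. essential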
- Meaning of the calls: active = essential: knock-down alone lowers viability (z below -3); inactive = no strong viability loss with knock-down alone

Silencing of NUAK2 (NUAK family kinase 2) gave: viability z-score, siRNA alone -0.494.
Against SRPK1 (SRSF protein kinase 1) the deposit lists viability z-score, siRNA alone -0.297.
For GK2 (glycerol kinase 2), the entry reads viability z-score, siRNA alone -0.859.
Knock-down of WEE1 (WEE1 G2 checkpoint kinase) resulted in: viability z-score, siRNA alone -2.33.
PI4K2B (phosphatidylinositol 4-kinase type 2 beta) showed viability z-score, siRNA alone -0.354.
Against KCNH2 (potassium voltage-gated channel subfamily H member 2), the entry reads viability z-score, siRNA alone 0.625.
Silencing of MED12 (mediator complex subunit 12) resulted in: viability z-score, siRNA alone -0.0436.
Against CEP290 (centrosomal protein 290), the values are viability z-score, siRNA alone -0.0678.
Against MAP4K3 (mitogen-activated protein kinase kinase kinase kinase 3), the entry reads viability z-score, siRNA alone -0.49.
Depletion of MYLK4 (myosin light chain kinase family member 4) gave: viability z-score, siRNA alone 0.625.
After knock-down of MPP3 (MAGUK p55 scaffold protein 3), the screen gave viability z-score, siRNA alone 0.625.
Silencing of N4BP2 (NEDD4 binding protein 2) resulted in: viability z-score, siRNA alone 0.625.

Targets listed so far whose target name starts with N or n:
NUAK2 (NUAK family kinase 2) → viability z-score, siRNA alone: -0.494
N4BP2 (NEDD4 binding protein 2) → viability z-score, siRNA alone: 0.625
